In article doi:10.1101/2024.10.31.621288 one finds binding data, which are given here for 10 molecules.

Results are given in words; binding and its absence hold for the method and conditions named. In cells and extracts the contact can be indirect. Some entries that bind do so weakly or less than the wild type. For some assays here: Where a sequence is shown, tags or fusion partners need not be part of it.

Experiment [1] addresses MPK6 (tagged constructs for Co-IP) (Arabidopsis) (UniProt Q39026). Nature of the experiment: co-IP.
The target of experiment [2] is T1, MKK4 (tagged constructs for Co-IP) (Arabidopsis) (UniProt O80397).
T1 sequence: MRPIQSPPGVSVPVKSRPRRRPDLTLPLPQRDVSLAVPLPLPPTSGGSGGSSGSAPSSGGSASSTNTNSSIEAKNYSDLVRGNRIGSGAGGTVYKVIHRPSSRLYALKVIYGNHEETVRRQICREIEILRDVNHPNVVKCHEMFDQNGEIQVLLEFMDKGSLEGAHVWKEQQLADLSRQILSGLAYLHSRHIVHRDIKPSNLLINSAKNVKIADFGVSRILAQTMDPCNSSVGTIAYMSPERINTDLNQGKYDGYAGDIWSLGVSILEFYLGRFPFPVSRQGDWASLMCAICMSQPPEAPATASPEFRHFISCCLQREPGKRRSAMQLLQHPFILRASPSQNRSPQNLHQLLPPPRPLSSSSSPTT
Nature of the experiment: co-IP.

For experiment [3], the target named is T2, MKK5 (tagged constructs for Co-IP) (Arabidopsis) (UniProt Q8RXG3).
T2 sequence: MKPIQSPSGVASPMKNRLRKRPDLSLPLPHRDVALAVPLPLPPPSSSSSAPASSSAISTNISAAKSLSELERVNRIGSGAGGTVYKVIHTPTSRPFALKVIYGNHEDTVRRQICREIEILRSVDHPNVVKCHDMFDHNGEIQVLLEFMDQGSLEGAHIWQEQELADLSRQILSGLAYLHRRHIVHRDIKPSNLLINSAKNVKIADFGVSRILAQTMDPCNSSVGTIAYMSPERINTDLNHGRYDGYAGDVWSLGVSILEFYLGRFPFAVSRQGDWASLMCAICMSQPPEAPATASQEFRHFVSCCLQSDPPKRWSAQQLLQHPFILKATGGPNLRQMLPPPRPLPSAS
Nature of the experiment: co-IP.

Experiment [4] concerns the target MPK6 (BiFC constructs MPK6-nYFP and MPK6-cYFP) (Arabidopsis) (UniProt Q39026). Nature of the experiment: split reporter.
In experiment [5] the target is T3, MKK4 (BiFC constructs MKK4-nYFP and MKK4-cYFP) (Arabidopsis) (UniProt O80397).
T3 sequence: T1 sequence
Nature of the experiment: split reporter.

The target in experiment [6] is T4, MKK5 (BiFC constructs MKK5-nYFP and MKK5-cYFP) (Arabidopsis) (UniProt Q8RXG3).
T4 sequence: T2 sequence
Nature of the experiment: split reporter.

The target of experiment [7] is MPK3 (BiFC constructs MPK3-nYFP and MPK3-cYFP) (Arabidopsis) (UniProt Q39023). Nature of the experiment: split reporter.
Experiment [8] concerns the target MPK3 (tagged constructs for Co-IP) (Arabidopsis) (UniProt Q39023). Nature of the experiment: co-IP.
For experiment [9], the target named is T5, MPK6 (BiFC constructs MPK6-nYFP and MPK6-cYFP) (Arabidopsis), Q39026.
T5 chain: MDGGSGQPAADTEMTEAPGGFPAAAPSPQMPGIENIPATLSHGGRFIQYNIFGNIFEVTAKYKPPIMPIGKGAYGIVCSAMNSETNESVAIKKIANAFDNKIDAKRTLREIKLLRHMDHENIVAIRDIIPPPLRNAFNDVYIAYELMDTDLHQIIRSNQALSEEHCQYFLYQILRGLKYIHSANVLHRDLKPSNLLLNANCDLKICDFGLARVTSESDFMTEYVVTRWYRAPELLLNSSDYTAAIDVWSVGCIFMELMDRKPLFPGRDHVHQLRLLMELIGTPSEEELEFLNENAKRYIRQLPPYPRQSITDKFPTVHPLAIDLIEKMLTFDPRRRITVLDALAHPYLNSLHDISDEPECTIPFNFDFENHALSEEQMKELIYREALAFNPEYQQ
Nature of the experiment: split reporter. The settings on record: remark: other sources report otherwise.

In experiment [10] the target is T6, MPK6 (tagged constructs for Co-IP) (Arabidopsis), Q39026.
T6 chain: T5 chain
Nature of the experiment: co-IP. The settings on record: remark: other sources report otherwise.

For “MPK6 (tagged constructs for Co-IP) (from UniProt Q39026 1-395)”, the binding result in experiment [1], in experiment [2] and in experiment [3] was “binds” throughout.

On to “MPK6 (BiFC constructs MPK6-nYFP and MPK6-cYFP) (from UniProt Q39026 1-395)”, for which the binding entry in experiment [4], in experiment [5] and in experiment [6] was “binds” each time.

B1: MKK4 (tagged constructs for Co-IP) (protein, UniProt O80397 1-366)
chain: T1 sequence
Consider B1, for which the binding result in [2] and in [3] was “binds” in each case.

B2: MKK4 (BiFC constructs MKK4-nYFP and MKK4-cYFP) (protein, UniProt O80397 1-366)
chain: T1 sequence
Regarding B2, the binding entry in [5] and in [6] was “binds” throughout.

B3: MKK5 (tagged constructs for Co-IP) (protein, UniProt Q8RXG3 1-348)
chain: T2 sequence
In the case of B3, the binding entry in experiment [3] is reported as “binds”.

B4: MKK5 (BiFC constructs MKK5-nYFP and MKK5-cYFP) (protein, UniProt Q8RXG3 1-348)
chain: T2 sequence
Turning to B4, the binding result in [6] is reported as “binds”.

B5: MPK3 (BiFC constructs MPK3-nYFP and MPK3-cYFP) (protein, UniProt Q39023 1-370)
chain: MNTGGGQYTDFPAVETHGGQFISYDIFGSLFEITSKYRPPIIPIGRGAYGIVCSVLDTETNELVAMKKIANAFDNHMDAKRTLREIKLLRHLDHENIIAIRDVVPPPLRRQFSDVYISTELMDTDLHQIIRSNQSLSEEHCQYFLYQLLRGLKYIHSANIIHRDLKPSNLLLNANCDLKICDFGLARPTSENDFMTEYVVTRWYRAPELLLNSSDYTAAIDVWSVGCIFMELMNRKPLFPGKDHVHQMRLLTELLGTPTESDLGFTHNEDAKRYIRQLPNFPRQPLAKLFSHVNPMAIDLVDRMLTFDPNRRITVEQALNHQYLAKLHDPNDEPICQKPFSFEFEQQPLDEEQIKEMIYQEAIALNPTYG
Consider B5, for which the binding entry in experiment [5], in experiment [7] and in experiment [6] was “binds” in each case.

B6: MPK3 (tagged constructs for Co-IP) (protein, UniProt Q39023 1-370)
chain: B5 chain
In the case of B6, the binding result in experiment [8], in experiment [2] and in experiment [3] was “binds” each time.

B7: MPK3 (BiFC constructs MPK3-nYFP and MPK3-cYFP), Q39023 1-370 (protein)
chain: B5 chain
As to B7, the binding entry in [9] is “binds”.

B8: MPK3 (tagged constructs for Co-IP), Q39023 1-370 (protein)
chain: B5 chain
For the molecule B8, the binding entry in experiment [10] is given as “binds”.
